At least one compound was matched to its structure with a doubt left.
Legend:
HCMV [1] = assay: HCMV DNA accumulation by qPCR; type: cell-based, human cytomegalovirus; conditions: rapamycin 20 nM; 0.05 PFU/cell
Procedure: (§1) FIG. 3. […] (A) Rapamycin-resistant mTOR activity is required for the accumulation of an some but not all HCMV proteins. […] Cells were harvested at the indicated times, and the accumulation of the indicated proteins was analyzed by Western blotting. […] At the indicated times DNA was isolated, and viral DNA was quantified by qPCR. Equivalent amounts of DNA were analyzed for each sample, and the results are normalized to the level of actin DNA per sample. […] At the indicated times the amount of UL99 RNA was determined by qPCR, and the results are normalized to the amount of actin RNA in each sample.
Determination of viral DNA and transcript accumulation in infected cells. The accumulation of viral DNA during HCMV infection was monitored by quantitative PCR (qPCR) as described previously (Terhune, et al. (2007) J. Virol. 81:3109-3123).
Briefly, primary human fibroblasts were infected with BADinGFP at a multiplicity of 0.05 PFU/cell. At the indicated times, cells were harvested by scraping them into medium and were stored as frozen cell pellets until analysis. Cell pellets were resuspended in 500 μl of a solution containing 400 mM NaCl, 10 mM Tris (pH 7.5), and 10 mM EDTA. […] For each sample, DNA was quantified by using a NanoDrop spectrophotometer (Thermo Scientific). […]
Viral DNA accumulation was measured by quantitative real-time PCR of fibroblasts treated with rapamycin or Torin1. […]

4EBP1 [2] = assay: 4EBP1 phosphorylation in MCMV-infected MEFs, Western blot; type: cell-based, mouse; conditions: wild-type MEFs; 48 hpi; rapamycin 20 nM, Torin1 250 nM, LY294002 20 μM
Procedure: FIG. 5. […] Fresh serum-free medium containing drugs was added every other day. At the indicated times, cell-free supernatants were harvested, and the amount of virus in the supernatant was quantified by the TCID50 method. Error bars represent the standard errors of the means form two independent experiments performed in duplicate. […] At 48 hpi the phosphorylation state of the indicated mTORC1 targets was analyzed by a Western blot assay by using antibodies to phosphorylated targets (4EBP1-PT^37/46 and rpS6-PS^235/6) and total proteins. The results are representative of three independent experiments.
FIG. 6. mTORC2 and its target, Akt, are not the source of rapamycin-resistant mTOR activity. […] At 6 days post infection the amount of MCMV in cell-free supernatants was determined by the TCID50 method. […] At 48 hpi, the phosphorylation state of mTORC1 targets was assessed by Western blotting using antibodies specific for the indicated proteins. […] Protein from wild-type or mutant MEFs was analyzed by Western blotting by use of an antibody specific for Akt.
The identification of the functional roles of proteins in the mTOR signaling pathway has been facilitated by the generation of knockout mouse strains lacking individual mTOR components. […] Also as observed for HCMV (FIG. 4A), MCMV infection induced mTORC1 activity, as measured by the increased phosphorylation of rpS6. […]

HCMV [3] = assay: Western blot of HCMV proteins (IE1, pUL44, pUL99) in infected fibroblasts; type: cell-based, human cytomegalovirus; conditions: 6 to 96 hpi; rapamycin 20 nM, Torin1 250 nM; 3 PFU/cell
Procedure: FIG. 2. […] Serum-starved confluent fibroblasts were infected with HCMV at a multiplicity of 3 PFU/cell. […] Control cultures received the vehicle in which Torin1 was dissolved (NT). At 2 hpi cells were harvested, and cell-associated viral DNA was quantified by real-time PCR analysis. Error bars represent the standard errors of the means from two independent experiments performed in duplicate. […] The level of IE1 was determined at 6 hpi by a Western blot assay using an IE1-specific monoclonal antibody. The image is representative of two independent experiments. […] The expression of a GFP marker gene present in the viral genome was monitored at 24 h after infection in the presence or absence of drug.
as §1
Cells were lysed in radioimmunoprecipitation assay (RIPA) buffer (50 mM Tris-HCl [pH 7.4], […], 0.25% sodium deoxycholate, 150 mM NaCl, 1 mM EDTA) containing protease inhibitors (complete EDTA free; Roche). Protein concentrations in each lysate were determined by the Bradford assay. 30 μg of protein was analyzed per sample. Proteins in cell lysates were resolved on SDS-containing 10% polyacrylamide gels. Proteins were transferred onto Protran membranes by using a semidry transfer apparatus. […]
Antibodies to pUL99 have been described previously (Silva, et al. J. Virol. (2003) 77:10594-10605). In addition, accumulation of HCMV DNA was monitored following infection using the methods described above.

4EBP1 [4] = assay: 4EBP1 phosphorylation in HSV-1-infected MEFs, Western blot; type: cell-based, mouse; conditions: 3 PFU/cell, 8 hpi

Q: For `CO[C@H]1C[C@@H]2CC[C@@H](C)[C@@](O)(O2)C(=O)C(=O)N2CCCC[C@H]2C(=O)O[C@H]([C@H](C)C[C@@H]2CC[C@@H](O)[C@H](OC)C2)CC(=O)[C@H](C)/C=C(\C)[C@@H](O)[C@@H](OC)C(=O)[C@H](C)C[C@H](C)/C=C/C=C/C=C/1C` [rapamycin], which “viral DNA accumulation (in words)” value (HCMV [1]) is on record?
A: The value was “modestly inhibited”.

Q: And the “phosphorylation of 4EBP1 in MCMV-infected MEFs” value (4EBP1 [2])?
A: The value was “but not rapamycin”.

Q: And the “accumulation of early protein pUL44” value (HCMV [3])?
A: The value was “little effect”.

Q: And the “accumulation of immediate-early protein IE1” value (HCMV [3])?
A: Its value is “little effect”.

Q: What about the “accumulation of late protein pUL99” value (HCMV [3]) of the same molecule?
A: The value was “reduced the level of the late protein pUL99 to a modest extent”.

Q: What about the “phosphorylation of 4EBP1 during HSV-1 infection” value (4EBP1 [4]) of the same molecule?
A: The value was “but not rapamycin”.
